A number of entries come with more than one value. The other results are left out here. There may be further records. Values that stand side by side read as repeated measurements (runs, samples, wells or individuals).
Test system: AMO-1
Test: Antiproliferation assay 7, AMO-1
Type: cell-based
Details: read-out: Antiproli AMO-1 IC50 median; AMO-1 cells, 72 hours, CellTiter-Glo

With `CCc1c2c(nn1C)CN(CC(F)F)CCCCn1c(C(=O)O)c(CCCOc3cccc4cc(F)ccc34)c3ccc(Cl)c-2c31` the IC50 was 1.29 µM and 12 µM.

From US11447504B2, “Macrocyclic chlorine substituted indole derivatives” (Bayer Aktiengesellschaft, priority 2017, dated 2022)
